From publication PMC7618045, “Outer membrane utilisomes mediate oligosaccharide uptake in gut Bacteroidetes” (Nature, 2023)
Read-outs that look alike come from different tables or passages of the source. Results are given in words; binding and its absence hold for the method and conditions named. Some entries that bind do so weakly or less than the wild type. For some of these results: Where a sequence is shown, tags or fusion partners need not be part of it.

T1: SusC^lev (B. thetaiotaomicron) (UniProt Q8A6W3)
T1 sequence: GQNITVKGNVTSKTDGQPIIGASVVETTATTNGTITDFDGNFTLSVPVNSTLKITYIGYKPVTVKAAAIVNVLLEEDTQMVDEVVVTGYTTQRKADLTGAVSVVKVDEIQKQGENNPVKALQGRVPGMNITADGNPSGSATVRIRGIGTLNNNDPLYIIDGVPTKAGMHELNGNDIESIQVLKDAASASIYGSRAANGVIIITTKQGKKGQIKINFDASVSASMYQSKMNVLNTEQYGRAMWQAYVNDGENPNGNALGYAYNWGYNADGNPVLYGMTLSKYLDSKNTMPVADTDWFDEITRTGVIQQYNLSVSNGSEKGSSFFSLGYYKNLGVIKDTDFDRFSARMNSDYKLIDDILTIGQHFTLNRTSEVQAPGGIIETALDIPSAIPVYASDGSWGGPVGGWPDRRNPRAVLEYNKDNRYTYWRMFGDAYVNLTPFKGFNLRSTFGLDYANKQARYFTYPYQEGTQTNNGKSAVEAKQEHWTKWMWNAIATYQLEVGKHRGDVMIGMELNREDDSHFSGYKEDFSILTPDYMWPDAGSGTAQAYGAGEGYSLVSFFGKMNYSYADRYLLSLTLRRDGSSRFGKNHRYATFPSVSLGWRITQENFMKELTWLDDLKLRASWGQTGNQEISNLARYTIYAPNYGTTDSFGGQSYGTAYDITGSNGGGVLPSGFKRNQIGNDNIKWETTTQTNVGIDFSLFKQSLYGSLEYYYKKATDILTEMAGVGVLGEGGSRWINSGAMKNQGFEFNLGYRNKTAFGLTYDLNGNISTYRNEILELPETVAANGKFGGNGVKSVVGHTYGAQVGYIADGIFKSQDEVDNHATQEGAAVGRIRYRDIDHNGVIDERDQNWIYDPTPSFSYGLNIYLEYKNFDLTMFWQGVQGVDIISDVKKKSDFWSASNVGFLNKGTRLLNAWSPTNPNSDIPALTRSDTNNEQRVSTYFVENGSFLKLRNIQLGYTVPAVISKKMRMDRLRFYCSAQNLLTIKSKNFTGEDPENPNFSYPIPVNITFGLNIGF


Assays:
[1] = target: T1, SusC^lev (B. thetaiotaomicron); experiment: cryo-EM structure; levan utilisome with active GH^lev, incubated with 0.5 mM levan FOS DP~8-12; 10 mM HEPES pH 7.5, 100 mM NaCl, 0.03% DDM; 3.2 Å whole, 2.9 Å SusCD^lev core
[2] = target: T1, SusC^lev (B. thetaiotaomicron)
[3] = target: T1, SusC^lev (B. thetaiotaomicron); experiment: cryo-EM structure; minor subset (~10%) of the earlier dataset of LDAO-solubilised SusCD^lev; 3D class average with additional density; crystal structure of GH^lev (7ZNR) fitted as a rigid body
[4] = target: T1, SusC^lev (B. thetaiotaomicron); experiment: cryo-EM structure; apo (substrate-free) levan utilisome, 3 mg/ml in 10 mM HEPES pH 7.5, 100 mM NaCl, 0.03% DDM; ~6 Å classes, 3.5 Å focused C2 refinement without SusD
[5] = target: T1, SusC^lev (B. thetaiotaomicron); remark: listed apart in the source

Binder | binding [1] | binding [2] | binding [3] | binding [4] | binding [5]
SusD^lev with His6 tag (protein, UniProt Q8A6W4 19-570, acyl-cysteine as the first residue (lipoprotein)) CDDFLDRQVPQGIVTGDQIASPEYVDNLVISAYAIWATGDDINSSFSLWNYDVRSDDCYKGGSGTEDGGVFNALEISKGINTTDWNINDIWKRLYQCITRANTALQSLDQMDEKTYPLKNQRIAEMRFLRGHAHFMLKQLFKKIVIVNDENMEPDAYNELSNTTYTNDEQWQKIADDFQFAYDNLPEVQIEKGRPAQAAAAAYLAKTYLYKAYRQDGADNALTGINEEDLKQVVKYTDPLIMAKGGYGLETDYSMNFLPQYENGAESVWAIQYSINDGTYNGNLNWGMGLTTPQILGCCDFHKPSQNLVNAFKTDSQGKPLFSTYDNENYEVATDNVDPRLFHTVGMPGFPYKYNEGYIIQKNDDWSRSKGLYGYYVSLKENVDPDCDCLKKGSYWASSLNHIVIRYADVLLMRAEALIQLNDGRITDAISLINEVRSRAAGSTMLIFNYKEDYGVNFKVTPYDLKAYAQDEAMKMLKWERRVEFGMESSRFFDLVRWGEAKDVINAYYVTEASRCSIYKNAGFTENKNEYLPVPFEQISASNGNYTQNFGW |  |  | binds |  | 
GH^lev (Bt1760; GH32 endo-levanase) (enzyme, UniProt Q8A6W6 21-523, acyl-cysteine as the first residue (lipoprotein)) CSDETDPILTQKNWDGTATYFQSSDEHGFSMYYKPQVGFVGDPMPFYDPVAKDFKVMYLQDYRPNPEATYHPIFGVATKDGATYESLGELISCGGRDEQDAAIGTGGTIYNPADKLYYTFYTGNKFKPSSDQNAQVVMVATSPDFKTWTKNRTFYLKGDTYGYDKNDFRDPFLFQTEDGVYHMLIATRKNGKGHIAEFTSADLKEWESAGTFMTMMWDRFYECPDVFKMGDWWYLIYSEQASFMRKVQYFKGRTLEDLKATTANDAGIWPDNREGMLDSRAFYAGKTASDGTNRYIWGWCPTRAGNDNGNVGDVEPEWAGNLVAQRLIQHEDGTLTLGVPDAIDRKYTSAQEVKVMAKDGNMIESGKTYTLGEGASVIFNRLKVHNKISFTVKTASNTDRFGISFVRGTDSASWYSIHVNADEGKANFEKDGDDAKYLFDNKFNIPADNEYRVTIYSDQSVCVTYINDQLSFTNRIYQMQKNPWSLCCYKGEITVSDVQVSTY | binds |  | binds | binds | 

Next, values leading:

binding [1] | binding [2] | binding [3] | binding [4] | binding [5] | Binder
binds | binds | binds |  |  | SusC^lev (natural protein, B. thetaiotaomicron, UniProt Q8A6W3 26-1041, looked up, SusC^lev, the TonB-dependent outer membrane transporter (SusC) of the levan PUL of B. thetaiotaomicron; Two copies stand in the utilisome (SusC2D2 core); written here without a tag; also called levan SusC; source: endogenous, B. thetaiotaomicron grown on fructose; co-purified from detergent-solubilised membranes (LDAO sample; DDM sample: Ni2+ column, SEC)) GQNITVKGNVTSKTDGQPIIGASVVETTATTNGTITDFDGNFTLSVPVNSTLKITYIGYKPVTVKAAAIVNVLLEEDTQMVDEVVVTGYTTQRKADLTGAVSVVKVDEIQKQGENNPVKALQGRVPGMNITADGNPSGSATVRIRGIGTLNNNDPLYIIDGVPTKAGMHELNGNDIESIQVLKDAASASIYGSRAANGVIIITTKQGKKGQIKINFDASVSASMYQSKMNVLNTEQYGRAMWQAYVNDGENPNGNALGYAYNWGYNADGNPVLYGMTLSKYLDSKNTMPVADTDWFDEITRTGVIQQYNLSVSNGSEKGSSFFSLGYYKNLGVIKDTDFDRFSARMNSDYKLIDDILTIGQHFTLNRTSEVQAPGGIIETALDIPSAIPVYASDGSWGGPVGGWPDRRNPRAVLEYNKDNRYTYWRMFGDAYVNLTPFKGFNLRSTFGLDYANKQARYFTYPYQEGTQTNNGKSAVEAKQEHWTKWMWNAIATYQLEVGKHRGDVMIGMELNREDDSHFSGYKEDFSILTPDYMWPDAGSGTAQAYGAGEGYSLVSFFGKMNYSYADRYLLSLTLRRDGSSRFGKNHRYATFPSVSLGWRITQENFMKELTWLDDLKLRASWGQTGNQEISNLARYTIYAPNYGTTDSFGGQSYGTAYDITGSNGGGVLPSGFKRNQIGNDNIKWETTTQTNVGIDFSLFKQSLYGSLEYYYKKATDILTEMAGVGVLGEGGSRWINSGAMKNQGFEFNLGYRNKTAFGLTYDLNGNISTYRNEILELPETVAANGKFGGNGVKSVVGHTYGAQVGYIADGIFKSQDEVDNHATQEGAAVGRIRYRDIDHNGVIDERDQNWIYDPTPSFSYGLNIYLEYKNFDLTMFWQGVQGVDIISDVKKKSDFWSASNVGFLNKGTRLLNAWSPTNPNSDIPALTRSDTNNEQRVSTYFVENGSFLKLRNIQLGYTVPAVISKKMRMDRLRFYCSAQNLLTIKSKNFTGEDPENPNFSYPIPVNITFGLNIGF
binds |  |  | binds | binds | SusD^lev (protein, UniProt Q8A6W4 19-570, acyl-cysteine as the first residue (lipoprotein)) CDDFLDRQVPQGIVTGDQIASPEYVDNLVISAYAIWATGDDINSSFSLWNYDVRSDDCYKGGSGTEDGGVFNALEISKGINTTDWNINDIWKRLYQCITRANTALQSLDQMDEKTYPLKNQRIAEMRFLRGHAHFMLKQLFKKIVIVNDENMEPDAYNELSNTTYTNDEQWQKIADDFQFAYDNLPEVQIEKGRPAQAAAAAYLAKTYLYKAYRQDGADNALTGINEEDLKQVVKYTDPLIMAKGGYGLETDYSMNFLPQYENGAESVWAIQYSINDGTYNGNLNWGMGLTTPQILGCCDFHKPSQNLVNAFKTDSQGKPLFSTYDNENYEVATDNVDPRLFHTVGMPGFPYKYNEGYIIQKNDDWSRSKGLYGYYVSLKENVDPDCDCLKKGSYWASSLNHIVIRYADVLLMRAEALIQLNDGRITDAISLINEVRSRAAGSTMLIFNYKEDYGVNFKVTPYDLKAYAQDEAMKMLKWERRVEFGMESSRFFDLVRWGEAKDVINAYYVTEASRCSIYKNAGFTENKNEYLPVPFEQISASNGNYTQNFGW
